{
  "source": "PubChem BioAssay AID1347075",
  "about": "(National Center for Advancing Translational Sciences (NCATS), 2019)",
  "note": "Screen size: about 400,000 compounds; about 5,500 (1.4%) were called active. This list was built around the results that the source calls inconclusive (neither active nor inactive); the mix of calls is not that of the screen. Calls come from the whole dose curve; as a rule, active = well fitted cell-killing curve with a large enough effect; inconclusive = small, poorly fitted or top-dose-only effect, or effect the other way; inactive = flat fitted curve, though single readings scatter. A potency beside an inconclusive call is a rough fit, not a confirmed value. % is set by controls: 0 for no effect and ±100 for the full control effect; potency is the fitted concentration of half-maximal effect.",
  "data": [
    {"experiment": "qHTS assay for MDR1-selective chemotherapeutics: Primary screen using the parental adenocarcinoma cell KB-3-1; note: nearly all actives have a fitted effect of over 60% in size", "conditions": "KB-3-1 viability, CellTiter-Glo ATP luminescence, 72 h; activity change, negative = cytotoxic: at 46.1 µM (top of the series)", "outline": "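Luminescent ATP read-out (CellTiter-Glo) measures survival of drug-naive KB-3-1 cells after 72 h compound exposure at 37 °C. Titration series was screened from lowest to highest concentration, with DMSO vehicle plates as background controls.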", "values": [
      {"smiles": "O=C(C1CC(=O)N(c2ccc3c(c2)OCCO3)C1)N1CCN(S(=O)(=O)c2ccccc2F)CC1", "note": "(stereo not given)", "activity change, negative = cytotoxic": "inconclusive: 0.262%"},
      {"smiles": "Cc1c(Cl)cccc1-n1ncc(C(=O)NCc2cccs2)c1C1CCN(C(=O)OC(C)(C)C)CC1", "Potency": "inactive"},
      {"smiles": "Cc1cc(C(=O)N/N=C/c2cccs2)no1", "Potency": "inactive"},
      {"smiles": "COc1ccc(CNC(=O)CCn2nc(C)c3c(C)n(-c4ccccc4)nc3c2=O)c(OC)c1", "activity change, negative = cytotoxic": "inconclusive: -12%"},
      {"smiles": "Cc1cc(C)c[n+](C(C)C(=O)c2ccc(-c3ccccc3)cc2)c1", "note": "(stereo not given)", "Potency": "active: 5.8 µM"},
      {"smiles": "O=C(Nc1ccc(N2CCOCC2)c(Cl)c1)c1ncn[nH]1", "Potency": "inconclusive: 29.1 µM [cytotoxic, single point]"},
      {"smiles": "C=C1[C@@H](O)CN(Cc2ccc(OC)cc2)S1(=O)=O", "Potency": "inconclusive: 29.1 µM [cytotoxic, single point]"},
      {"smiles": "COC(=O)CSc1[nH]c2cc(C)ccc2c1[N+](=O)[O-]", "Potency": "inactive"},
      {"smiles": "Cc1ccc(-n2cc(CN3CCNC(=O)CC3)c(-c3ccc(F)cc3)n2)cc1", "Potency": "inactive"},
      {"smiles": "CN(C)c1ccc(/C=C/c2c(Br)cnc3ccccc23)cc1", "Potency": "inconclusive: 29.1 µM [cytotoxic, single point]"},
      {"smiles": "CC1CC(C)CN(C2CCCCC2NS(=O)(=O)c2ccc(Cl)cc2)C1", "note": "(stereo not given)", "Potency": "inactive"},
      {"smiles": "CC(C)(C)OC(=O)N1CCC(C(=O)Nc2cccc(C(=O)NCCc3ccccc3)c2)CC1", "activity change, negative = cytotoxic": "inconclusive: 0.911%"},
      {"smiles": "CCOc1ccc(C(=O)NCCn2cc(SCC(=O)Nc3ccccc3)c3ccccc32)cc1", "Potency": "inconclusive: 20.6 µM [cytotoxic, single point]"},
      {"smiles": "CC(NC(=O)COC(=O)COc1ccc(Cl)cc1)c1ccccc1", "note": "(stereo not given)", "Potency": "inconclusive: 29.1 µM [rising, single point]"},
      {"smiles": "C#CCOCCOCCOCCNc1nc(N2CCN(C(=O)Cn3cc(CCCCN)nn3)CC2)nc(N2CCN(C(=O)Cn3cc(CC(C)O)nn3)CC2)n1", "note": "(stereo not given)", "Potency": "inactive"},
      {"smiles": "Cc1ccc2c(c1)[C@@H]1[C@H](CO2)[C@H](c2ccccc2)[C@]2(C)C(=O)N[C@H](C)C(=O)N12", "Potency": "inactive"},
      {"smiles": "CC(C)n1cc(/C=C2/NC(=O)N(c3cccc(Cl)c3)C2=O)c2ccccc21", "Potency": "inconclusive: 18.4 µM [cytotoxic, single point]"},
      {"smiles": "COc1ccc(C2Nc3ccccc3C(=O)N2Cc2ccco2)cc1COc1ccccc1F", "note": "(stereo not given)", "Potency": "inconclusive: 20.6 µM [cytotoxic, partial curve]"},
      {"smiles": "Cc1ccccc1CN1CCc2c(OCC(=O)N3CCCc4ccccc43)cccc2C1=O", "Potency": "active: 20.6 µM"},
      {"smiles": "COc1ccccc1CNC(=O)Cn1c(=O)oc2cc(S(=O)(=O)NCc3ccccc3)ccc21", "Potency": "inconclusive: 13 µM [cytotoxic, partial curve, poor fit]"},
      {"smiles": "CSc1ncccc1C(=O)OCC(=O)NCc1ccc2c(c1)OCO2", "Potency": "inactive"},
      {"smiles": "COC(=O)c1ccccc1NC(=O)CSc1nc(-c2ccco2)cc(C(F)(F)F)n1", "Potency": "inconclusive: 3.26 µM [cytotoxic, full curve, poor fit]"},
      {"smiles": "Cc1ccc2cc(CN(CCN(C)C)C(=O)Nc3ccc(Cl)cc3)c(=O)[nH]c2c1", "Potency": "inconclusive: 20.6 µM [cytotoxic, single point]"},
      {"smiles": "CCN(CC)c1ccc2cc(-c3nc4ccccc4[nH]3)c(=O)oc2c1", "Potency": "inconclusive: 29.1 µM [cytotoxic, single point]"},
      {"smiles": "COc1cccc(/C=N/NC(=O)CN2CC(c3ccccc3)CC2=O)c1O", "note": "(stereo not given)", "Potency": "inconclusive: 20.6 µM [cytotoxic, single point]"},
      {"smiles": "C=CCC1NS(=O)(=O)OC2CCCC12", "note": "(stereo not given)", "Potency": "inconclusive: 32.6 µM [cytotoxic, single point]"},
      {"smiles": "Cc1ccc(C2CC(c3ccccc3)=NN2C(=S)Nc2ccccc2)o1", "note": "(stereo not given)", "Potency": "active: 5.8 µM"},
      {"smiles": "O=C(CSc1n[nH]c(-c2ccncc2)n1)Nc1ccc(F)cc1", "Potency": "inactive"},
      {"smiles": "Cc1cc(C)c(OCCn2ccnc2)c(C)c1", "Potency": "inconclusive: 13 µM [cytotoxic, partial curve, poor fit]"},
      {"smiles": "COc1cc(NC(=S)NC(=O)C(C)C)ccc1NC(=O)c1cc2ccccc2o1", "Potency": "inactive"},
      {"smiles": "O=C(Nc1ccccc1)c1nc2ccccc2s1", "Potency": "inconclusive: 16.4 µM [cytotoxic, single point]"},
      {"smiles": "CCn1c(O)c(N=NC(=O)CNC(=O)c2ccco2)c2ccccc21", "Potency": "inconclusive: 29.1 µM [cytotoxic, single point]"},
      {"smiles": "C/C=C(/C)C(=O)O[C@@H]1c2c(ccc3ccc(=O)oc23)OC(C)(C)[C@@H]1OC(=O)/C(C)=C\\C", "Potency": "inconclusive: 20.6 µM [cytotoxic, single point]"},
      {"smiles": "O=S1(=O)C=C(SCc2ccc(Cl)c(Cl)c2)Nc2ccccc21", "Potency": "inconclusive: 29.1 µM [cytotoxic, single point]"},
      {"smiles": "CC(=O)c1c(C(C)=O)c(C)n(Cc2ccc3c(c2)OCO3)c1C", "Potency": "active: 13 µM"},
      {"smiles": "O=C(N/N=C/c1c(-c2ccccc2)[nH]c2ccccc12)c1cccnc1", "Potency": "inconclusive: 23.1 µM [cytotoxic, partial curve, poor fit]"},
      {"smiles": "CCOC(=O)c1ccc(NC2c3ccccc3C(=O)N2c2ccc(C)cn2)cc1", "note": "(stereo not given)", "Potency": "inactive"},
      {"smiles": "COc1cccc(CNC(=O)[C@@H]2CCCN2C(=O)[C@H]2CCCCN2C(=O)c2ccccc2C)c1", "Potency": "inactive"},
      {"smiles": "COc1ccc2nc(NC(=O)CSC3=NCCS3)sc2c1", "Potency": "inconclusive: 29.1 µM [cytotoxic, partial curve, poor fit]"},
      {"smiles": "COc1ccc(-n2c(=O)c3c(c4cc(OC)ccc4n3C)n(Cc3ccc(F)cc3Cl)c2=O)cc1", "Potency": "inactive"},
      {"smiles": "COc1ccc2cc(CCNS(=O)(=O)c3c(C)cc(C)cc3C)c(=O)[nH]c2c1", "Potency": "inactive"},
      {"smiles": "CCc1ccc(CNC(=O)Cn2c(-c3cccs3)cc3cc(F)ccc32)cc1", "Potency": "inactive"},
      {"smiles": "COc1ccccc1NC(=O)c1c(NC(=O)Cc2ccccc2)sc2c1CCC(C(C)(C)C)C2", "note": "(stereo not given)", "Potency": "inconclusive: 20.6 µM [rising, partial curve, poor fit]"},
      {"smiles": "CCCCc1c(-c2ccccc2OC)ncn1CCc1ccccc1", "Potency": "inconclusive: 25.9 µM [cytotoxic, single point]"},
      {"smiles": "COc1ccc(-c2cc(C(C)=O)c(C)n2CCC(=O)Nc2ccc(C(F)(F)F)cc2)cc1", "Potency": "inconclusive: 20.6 µM [cytotoxic, single point]"}
    ]}
  ]
}
